Measurements: publication PMC7911045
No constants are given. Whether binding was seen depends on the method and setting. For some of these results: Sequences can lack the tags named with a protein. Values belong to the molecule of their own block, whether it stands above or below them.

The chains behind the UniProt entries cited, without tags or fusion partners. Residues count along the entry.
UniProt Q9NWS0, residues 51-174: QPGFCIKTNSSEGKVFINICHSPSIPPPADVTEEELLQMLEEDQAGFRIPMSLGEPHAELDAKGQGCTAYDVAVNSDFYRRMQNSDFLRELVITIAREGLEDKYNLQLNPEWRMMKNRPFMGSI
UniProt P0DM59: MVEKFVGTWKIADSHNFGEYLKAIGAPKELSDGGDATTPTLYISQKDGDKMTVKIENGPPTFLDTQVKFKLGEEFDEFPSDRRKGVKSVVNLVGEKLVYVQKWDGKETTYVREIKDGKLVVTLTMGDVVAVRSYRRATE
UniProt P22301, residues 19-178: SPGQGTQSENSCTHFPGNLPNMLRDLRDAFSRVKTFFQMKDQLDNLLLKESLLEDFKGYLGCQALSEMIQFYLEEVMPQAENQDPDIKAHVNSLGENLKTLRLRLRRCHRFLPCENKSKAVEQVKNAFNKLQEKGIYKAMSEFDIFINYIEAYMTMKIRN

Columns and labels:
[1] = target: 4PSF wild type protein (PIH1D1 N-terminal domain) with N-terminal His-tag (human) (UniProt Q9NWS0); test: dynamic light scattering; purified scaffold candidates with N-terminal His-tags after size exclusion chromatography; ZetaSizer Nano ZS90; intensity-based particle size distribution; both purified
[2] = target: Fluorescent protein UnaG wild type with N-terminal His-tag (Anguilla japonica) (UniProt P0DM59); test: as above
interleukin-10 (human) = interleukin-10 (human) (UniProt P22301); test: MST; IL-10 labelled on its C-terminal His-tag (RED-tris-NTA), titrated by ProBi variants; 50 mM Tris pH 8.0, 300 mM NaCl, 0.1% Pluronic F-127; 10 min at room temperature; Monolith NT.115, medium MST power, 60% LED; both purified
[3] = target: Alpha-X beta2 integrin I domain with N-terminal His-tag (human) (UniProt P20702); test: dynamic light scattering; purified scaffold candidates with N-terminal His-tags after size exclusion chromatography; ZetaSizer Nano ZS90; intensity-based particle size distribution; both purified

Molecule: 4PSF wild type protein (PIH1D1 N-terminal domain) with N-terminal His-tag (from UniProt Q9NWS0 51-174) (domain or fragment)
binding [1]: no binding

Molecule: Fluorescent protein UnaG wild type with N-terminal His-tag (from UniProt P0DM59 1-139)
binding [2]: no binding

Results, then the molecule that gave them:

binding (interleukin-10 (human)): no binding
Molecule: ProBi-WT protein scaffold (from UniProt Q9NWS0 51-174) (domain or fragment)

binding [3]: no binding
B1: Alpha-X beta2 integrin I domain with N-terminal His-tag (domain or fragment, UniProt P20702 147-338)
chain: RQEQDIVFLIDGSGSISSRNFATMMNFVRAVISQFQRPSTQFSLMQFSNKFQTHFTFEEFRRSSNPLSLLASVHQLQGFTYTATAIQNVVHRLFHASYGARRDAAKILIVITDGKKEGDSLDYKDVIPMADAAGIIRYAIGVGLAFQNRNSWKELNDIASKPSQEHIFKVEDFDALKDIQNQLKEKIFAIEG
